Source: paper doi:10.1101/720508
Results are given in words; binding and its absence hold for the method and conditions named. In cells and extracts the contact can be indirect.

Chains of the proteins cited; added tags and fusions are not shown.
UniProt P63094: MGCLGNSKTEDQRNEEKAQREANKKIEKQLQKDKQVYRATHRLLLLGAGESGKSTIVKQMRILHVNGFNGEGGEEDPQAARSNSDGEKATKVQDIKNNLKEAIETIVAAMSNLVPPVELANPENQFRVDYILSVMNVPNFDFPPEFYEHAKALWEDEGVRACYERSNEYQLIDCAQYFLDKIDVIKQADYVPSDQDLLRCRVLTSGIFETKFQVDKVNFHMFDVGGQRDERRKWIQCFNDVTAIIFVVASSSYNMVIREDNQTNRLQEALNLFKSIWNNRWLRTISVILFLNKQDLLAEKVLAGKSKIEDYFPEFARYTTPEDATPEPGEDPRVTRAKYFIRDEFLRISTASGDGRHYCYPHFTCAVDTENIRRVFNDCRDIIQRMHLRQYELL
UniProt P47746: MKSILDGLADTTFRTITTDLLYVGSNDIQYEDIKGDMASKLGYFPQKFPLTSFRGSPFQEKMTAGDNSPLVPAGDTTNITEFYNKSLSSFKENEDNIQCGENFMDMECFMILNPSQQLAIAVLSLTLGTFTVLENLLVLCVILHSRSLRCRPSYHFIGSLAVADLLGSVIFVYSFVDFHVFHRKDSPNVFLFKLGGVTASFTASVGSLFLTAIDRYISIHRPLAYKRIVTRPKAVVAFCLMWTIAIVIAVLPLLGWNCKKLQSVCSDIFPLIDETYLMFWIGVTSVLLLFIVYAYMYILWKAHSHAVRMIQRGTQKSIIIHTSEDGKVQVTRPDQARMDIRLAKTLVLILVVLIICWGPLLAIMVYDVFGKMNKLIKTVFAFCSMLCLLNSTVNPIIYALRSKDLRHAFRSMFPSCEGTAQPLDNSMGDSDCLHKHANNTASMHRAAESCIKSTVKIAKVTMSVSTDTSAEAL

Biological target: T1, GPR151 (mouse (endogenous in IPN)) (UniProt Q7TSN6)
T1 sequence: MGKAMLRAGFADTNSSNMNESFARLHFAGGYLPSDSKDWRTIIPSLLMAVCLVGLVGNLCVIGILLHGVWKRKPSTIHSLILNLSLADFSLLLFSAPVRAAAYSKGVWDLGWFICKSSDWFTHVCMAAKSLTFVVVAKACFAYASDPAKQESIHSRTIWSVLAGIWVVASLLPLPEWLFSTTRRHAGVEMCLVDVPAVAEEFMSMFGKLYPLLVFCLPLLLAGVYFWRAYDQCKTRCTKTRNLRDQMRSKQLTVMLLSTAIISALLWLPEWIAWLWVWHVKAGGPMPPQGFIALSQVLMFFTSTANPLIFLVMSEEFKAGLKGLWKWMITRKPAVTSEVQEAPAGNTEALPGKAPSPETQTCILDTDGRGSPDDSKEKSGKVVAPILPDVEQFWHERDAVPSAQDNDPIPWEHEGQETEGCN
Test: co-IP

binding | Substance
no binding | G-alpha stimulatory subunit (Gαs) (from UniProt P63094 1-394)
no binding | cannabinoid receptor 1 (CB1R) (from UniProt P47746 1-473)
